The data set can be described thus: panel tests on the bitter taste. The following applies: 10% by weight dry syrup in sucrose, 100-200 mg each; 10 persons; 0 undetectable, 1 negligible, 2 bitter (acceptable), 3 bitter (unacceptable), 4 bitter (objectionable).

`CCC(=O)OC1CC(=O)OC(C)CC=CC=CC(O)C(C)CC(CC=O)C(OC2OC(C)C(OC3CC(C)(O)C(OC(=O)CC)C(C)O3)C(N(C)C)C2O)C1OC` (stereo not shown) [SF-837]: the “Mean Scores (bitter taste)” value came to 3.6 point.

(Values after patent US4029881A, “Antibiotic 9-acyl-3"-thiomethoxymethyl-SF-837 composition and process for preparing the same” (Meiji Seika Co., Ltd., priority 1972, dated 1977).)
